Values from PubChem BioAssay AID1259425 (University of Nebraska Medical Center, 2018)

- Aim: 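Find knockdowns that reproduce the gene expression pattern seen when KSR1 is lost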 (primary screen)
- Cell system: HCT116 human colon cancer cells
- Knock-down reagent: siRNA pool against human genes, 50 nM siRNA
- Read-out: 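After 50 nM siRNA pool, branched-DNA assay measures six marker transcripts per well, minus blank, normalised to the geometric mean of two housekeeping transcripts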
- Reading the numbers: BNIP3L mRNA: higher = more BNIP3L transcript after knockdown; NDRG1 mRNA: higher = more NDRG1 transcript after knockdown; BNIP3 mRNA: higher = more BNIP3 transcript after knockdown; ALDOC mRNA: higher = more ALDOC transcript after knockdown; ACSL5 mRNA: higher = more ACSL5 transcript after knockdown
Here is an unselected part of about 14,000 deposited reagents. Not given: the time to read-out.

no.	gene knocked down	BNIP3L mRNA, set 1	NDRG1 mRNA, set 1	BNIP3 mRNA, set 1	ALDOC mRNA, set 1	ACSL5 mRNA, set 1
1	DTL (denticleless E3 ubiquitin protein ligase adapter)	0.0718	0.135	0.256	0.018	0.0735
2	HARS1 (histidyl-tRNA synthetase 1)	0.089	0.146	0.222	0.0151	0.0815
3	EXOSC2 (exosome component 2)	0.186	0.458	0.536	0.0391	0.346
4	CD99L2 (CD99 molecule like 2)	0.115	0.202	0.395	0.0596	0.384
5	FAF1 (Fas associated factor 1)	0.06	0.204	0.278	0.0324	0.0674
6	TPMT (thiopurine S-methyltransferase)	0.0786	0.141	0.211	0.0182	0.189
7	CALCRL (calcitonin receptor like receptor)	0.137	0.143	0.304	0.0415	0.131
8	MORF4L2 (mortality factor 4 like 2)	0.0783	0.257	0.225	0.0151	0.235
9	SEC23A (SEC23 homolog A, COPII component)	0.0265	0.251	0.262	0.0214	0.122
10	TEX2 (testis expressed 2)	0.0367	0.149	0.33	0.0474	0.133
11	EDNRB (endothelin receptor type B)	0.0809	0.17	0.286	0.0226	0.176

Targets above whose target name starts with C or c (2):
gene knocked down	BNIP3L mRNA, set 1	NDRG1 mRNA, set 1	BNIP3 mRNA, set 1	ALDOC mRNA, set 1	ACSL5 mRNA, set 1
CD99L2 (CD99 molecule like 2)	0.115	0.202	0.395	0.0596	0.384
CALCRL (calcitonin receptor like receptor)	0.137	0.143	0.304	0.0415	0.131

The list goes on:
no.	gene knocked down	BNIP3L mRNA, set 1	NDRG1 mRNA, set 1	BNIP3 mRNA, set 1	ALDOC mRNA, set 1	ACSL5 mRNA, set 1
12	KIAA1328	0.278	0.679	0.412	0.0876	0.338
13	HHATL (hedgehog acyltransferase like)	0.136	0.212	0.265	0.0124	0.247
14	NEK10 (NIMA related kinase 10)	0.129	0.219	0.304	0.0182	0.562
15	KCTD5 (potassium channel tetramerization domain containing 5)	0.0829	0.417	0.272	0.0189	0.195
16	MKRN3 (makorin ring finger protein 3)	0.257	0.433	0.405	0.0559	0.198
17	ARF5 (ARF GTPase 5)	0.0948	0.126	0.243	0.0495	0.0946
18	ESX1 (ESX homeobox 1)	0.139	0.108	0.335	0.0525	0.156
19	LGMN (legumain)	0.077	0.0553	0.217	0.0383	0.071
20	LMO7 (LIM domain 7)	0.09	0.0935	0.188	0.0275	0.221
